As a reminder, the AC50 is the midpoint of the concentration-response curve, whichever way the signal moves.

The list shows a part of the results. The main result of the screen is listed elsewhere. These columns were measured beside it and carry no call. Most of these compounds were active or inconclusive in the main read-out, so they are no random draw. Potencies come from curve fits of mixed quality, noted in brackets.

This passage reports AC50 results from PubChem BioAssay AID445 (National Center for Advancing Translational Sciences (NCATS), 2006).

The test in a line: IkB Signaling. To be noted: ABC-DLBCL IkBa-CBG/CBR dual luciferase ratio (green luciferase fused to IkBa over red control in OCI-Ly3 lymphoma cells), 4 h. The procedure, abridged:
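Curves were fitted separately to fusion (green), unfused (red) and ratio luminescence, then classed by r2, magnitude and activity. Cells: OCI-Ly3, 4 h compound plus doxycycline at 37C; 10 uM MG-132 defined full response.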

Where [1] appears, read: measured here: control luc red channel unless noted.

`O=C(NCCc1csc(-c2ccc(F)cc2)n1)C(=O)Nc1ccc(Cl)cc1`: under setting [1], the concentration at half-maximal activity (AC50) is 1 µM [falling, full curve].
Same read-out and setting: in the case of `Cc1c(C(=O)Nc2cccc(C(F)(F)F)c2)oc2ccc(S(=O)(=O)N(C)C3CCCCC3)cc12` it was 12.6 µM [falling, partial curve].
On the same count and under the same terms, in the case of `O=C(CC1C(=O)N(c2ccccc2)C(=O)N1CCc1cccs1)Nc1ccc(Cl)cc1` (stereo not drawn) it was 20 µM [falling, single point].
The same measure, in the same setting: the same measure for `CCNC(=O)c1ccc(-n2c(-c3ccccc3)cc3c2CCCCC3)cc1`: 7.94 µM [falling, partial curve].
With `COc1ccc(OC)c(NC(=O)[C@H](Cc2ccccc2)N2Cc3ccccc3C2=O)c1`, the AC50 under setting [1] is 39.8 µM [falling, single point].
Still for that read-out and setting: the same measure for `CCOC(=O)CNc1ncnc2c1nnn2C`: 3.16 µM [rising, full curve, poor fit]; for `COc1cccc(-c2cc(C(=O)Nc3ccc(F)cc3)[nH]n2)c1`: 0.02 µM [falling, full curve].
The same measure, in the same setting: the same measure for `CCC(=O)N1c2ccccc2CC1C(=O)NCCc1ccc(OC)cc1OC` (stereo not drawn): 7.94 µM [falling, full curve, poor fit]; for `CCc1cccc(-n2c(=O)c3cccnc3n2CC(=O)Nc2ccccc2C(=O)OC)c1`: 6.31 µM [falling, partial curve]; for `Cc1ccc2oc(C(=O)Nc3sc4c(c3C(=O)NCc3ccccc3)CCCC4)cc(=O)c2c1`: 1.26 µM [rising, full curve].
Take `CCOc1ccc(NC(=O)c2ccc3nc(Cc4ccccc4)oc3c2)cc1`: under setting [1], the AC50 was 7.94 µM [falling, partial curve].
The same measure, in the same setting: the same measure for `Cc1ccccc1C(=O)Nc1ccc(Cl)cn1`: 10 µM [falling, partial curve]; for `Cc1ccc(-n2nnnc2SCC(=O)N2CCc3ccccc3C2)c(C)c1`: 15.8 µM [falling, partial curve]; for `CC1C(=O)N2CCCc3cc(S(=O)(=O)Nc4ccc(Br)cc4F)cc1c32` (stereo not drawn): 6.31 µM [falling, partial curve].
Same read-out and setting: the same measure for `CSc1ccc2c(c1)[C@H](N1CCN(C)CC1)Cc1ccccc1S2`: 31.6 µM [falling, partial curve].
Still for that read-out and setting: in the case of `O=C(Cn1c(=O)oc2cc(S(=O)(=O)NCc3ccccc3)ccc21)N(CCO)Cc1ccccc1` it was 10 µM [falling, partial curve].
Regarding `Cc1ccc(Cn2c3ccccc3c3cnn(CC(=O)N4CCCCCC4)c(=O)c32)cc1`, the AC50 under setting [1] was 25.1 µM [falling, single point].
Still for that read-out and setting: in the case of `COC(=O)c1cc2oc(C)cc2n1CC(=O)Nc1ccc(OC)c(OC)c1` it was 0.251 µM [rising, full curve]; in that of `COC(=O)c1ccc(NC(=O)CSc2nccn2Cc2ccc(Cl)cc2)cc1`, 39.8 µM [falling, single point].
Still for that read-out and setting: in the case of `CCOc1ccc(-n2c(=O)c3c(C)c(C)sc3n(Cc3c(F)cccc3Cl)c2=O)cc1` it was 0.2 µM [rising, full curve, poor fit]; in that of `Cc1cc(O)c(C(c2ccccc2)N2CCN(c3ccccc3F)CC2)c(=O)n1Cc1ccco1` (stereo not drawn), 39.8 µM [falling, single point].
Still for that read-out and setting: in the case of `CCOc1ccccc1-n1nnnc1SCc1nc2ccccc2s1` it was 12.6 µM [falling, partial curve]; in that of `CCC(=O)N1CCc2cc(Br)cc(S(=O)(=O)CCC(=O)NCc3ccc(C)cc3)c21`, 15.8 µM [falling, partial curve]; in that of `COc1ccc(CNC(=O)C(=O)Nc2ccccc2OC)cc1`, 5.01 µM [falling, partial curve].
Take `COc1ccc(CCN2C(=O)c3[nH]nc(-c4ccccc4O)c3C2c2ccc(C)cc2)cc1OC` (stereo not drawn): under setting [1], the AC50 is 10 µM [falling, partial curve].
The same measure, in the same setting: in the case of `CCOc1ccccc1N(C)C(=O)c1cc(S(=O)(=O)NCc2ccc(C)cc2)ccc1F` it was 20 µM [falling, single point].
Same read-out and setting: the same measure for `CCc1cccc(NC(=O)Cn2c(=O)n(Cc3ccccc3)c(=O)c3c(C)c(C(=O)N(C)C)sc32)c1`: 39.8 µM [falling, single point]; for `CCc1nn2c(=O)cc(COC(=O)c3cccc(NC(=O)COc4ccccc4F)c3)nc2s1`: 15.8 µM [falling, partial curve].
Consider `N#CC1=C(O)CCCn2c1nc1ccccc1c2=O`, for which the half-maximal activity concentration (AC50) under setting [1] was 12.6 µM [falling, partial curve].
Still for that read-out and setting: the same measure for `CCC(=O)C1=C(c2cccc([N+](=O)[O-])c2)N(C(=O)CC)n2c(nnc2C2CCCCC2)S1`: 6.31 µM [falling, partial curve]; for `COc1ccc(-c2nc3ccccc3o2)cc1NC(=O)COc1c(C)cc(Cl)cc1Cl`: 0.126 µM [rising, full curve]; for `Cc1cccc(-c2nc3c4ccccc4n(CC(=O)Nc4cccc(F)c4)c(=O)n3n2)c1`: 5.01 µM [rising, full curve, poor fit].
The same measure, in the same setting: the same measure for `CCOC(=O)C1CCN(c2csc3ccc(C)cc3c2=O)CC1`: 25.1 µM [falling, partial curve].
On the same count and under the same terms, the same measure for `CC(C)(C)OC(=O)N1CCC(c2c(C(=O)N3CCN(c4ccccc4F)CC3)cnn2C(C)(C)C)CC1`: 31.6 µM [falling, partial curve, poor fit]; for `CCOc1ccc2[nH]c(=O)c(CN(Cc3cccnc3)C(=O)Nc3ccccc3OC)cc2c1`: 20 µM [falling, partial curve].
Take `O=C(CCC1CCCC1)c1c(O)c2ccccc2oc1=O`: under setting [1], the concentration at half-maximal activity (AC50) is 0.631 µM [falling, full curve].
Take `CCc1ccc2oc(C(=O)N(Cc3cccc(Cl)c3)Cc3ccco3)c(C)c2c1`: the AC50 under setting [1] was 39.8 µM [falling, single point].
As for `O=C(Cn1c2ncccc2c(=O)n1-c1ccccc1)Nc1cccc(C(F)(F)F)c1`, under setting [1], the concentration at half-maximal activity (AC50) is 39.8 µM [falling, single point].
Same read-out and setting: in the case of `COc1ccc(CNC(=O)c2ccc(NC(=O)N3CCSc4ncccc43)cc2)c(OC)c1` it was 12.6 µM [falling, single point].
On the same count and under the same terms, in the case of `CCOc1ccc2oc(=O)cc(CN3CCN(C(=O)c4cccc(Cl)c4)CC3)c2c1` it was 20 µM [falling, single point].
Same read-out and setting: the same measure for `CC(=O)[C@@]1(O)CC[C@@H]2[C@@H]3CCC4=CC(=O)CC[C@@]4(C)[C@H]3CC[C@]21C`: 1.26 µM [rising, full curve, poor fit] [measured here: IkB-luc green channel].
On to `Cc1ccc(-n2nc(-c3cccs3)cc2C(=O)NCC2CCCO2)c(C)c1` (stereo not drawn), for which, under setting [1], the concentration at half-maximal activity (AC50) is 25.1 µM [falling, single point].
The same measure, in the same setting: in the case of `N#Cc1nc(COc2ccc(-c3ccccc3)cc2)oc1NCc1cccnc1` it was 10 µM [falling, partial curve]; in that of `COC(=O)c1ccccc1NC(=O)c1sc2nc(C)cc(C)c2c1NC(=O)c1ccccc1Cl`, 0.1 µM [rising, full curve].
As for `COc1ccc(NC(=O)c2cc(C(C)=O)n3ccccc23)cc1Cl`, the concentration at half-maximal activity (AC50) (measured here: IkB-luc green channel) was 5.01 µM [rising, partial curve] and the AC50 (measured here: control luc red channel) is 15.8 µM [falling, partial curve].
`COc1ccc(NC(=O)c2ncoc2-c2ccco2)cc1Cl`: the AC50 under setting [1] was 0.631 µM [rising, full curve, poor fit].
Still for that read-out and setting: the same measure for `CCOC(=O)c1cccc(NC(=O)C2CCN(S(=O)(=O)c3c(C)noc3/C=C/c3ccc(C)cc3)CC2)c1`: 3.16 µM [falling, full curve]; for `O=C(Cc1ccccc1)Nc1sc2c(c1C(=O)Nc1ccccc1Cl)CCCC2`: 25.1 µM [falling, single point].
Same read-out and setting: in the case of `COc1ccc(CNC(=O)Cn2ccc3cc(S(=O)(=O)N4CCCC4)ccc32)c(OC)c1` it was 12.6 µM [falling, partial curve]; in that of `COc1ccc(OC)c(-c2nnc3n(CCc4ccccc4)c(=O)c4ccccc4n23)c1`, 12.6 µM [falling, partial curve].
Still for that read-out and setting: the same measure for `O=C(O)CCc1ccc(-c2ccccc2)o1`: 31.6 µM [rising, partial curve] [measured here: IkB-luc green channel].
As to `Cc1ccc2oc(=O)c3cc(C(=O)NCc4ccc(Cl)cc4)sc3c2c1`, under setting [1], the AC50 is 39.8 µM [rising, single point].
The same measure, in the same setting: in the case of `O=C(NC1CCCC1)C(c1ccc(O)cc1)N(CC1CCCO1)C(=O)C1COc2ccccc2O1` (stereo not drawn) it was 12.6 µM [falling, partial curve].
Still for that read-out and setting: the same measure for `COc1ccc(CCNc2oc(COc3ccc(F)cc3)nc2C#N)cc1`: 31.6 µM [falling, partial curve]; for `COc1ccc(-c2csc3nc(-c4ccc(F)cc4)oc(=O)c23)cc1OC`: 1 µM [falling, full curve, poor fit].
Still for that read-out and setting: in the case of `Cc1ccc(C(=O)OCC(=O)Nc2sc3c(c2C#N)CCCCC3)cc1NC(=O)c1ccco1` it was 7.94 µM [falling, partial curve]; in that of `Cc1ccc(-c2noc(CSc3nnc(C)n3-c3ccc(F)cc3)n2)cc1`, 25.1 µM [falling, partial curve].
As for `CCOc1cccc(NC(=O)C2CC(=O)N(C)C(=Nc3cccc(F)c3)S2)c1` (stereo not drawn), under setting [1], the half-maximal activity concentration (AC50) was 12.6 µM [falling, partial curve].
The same measure, in the same setting: in the case of `O=C(NCc1ccccc1F)c1cc2ccccn2n1` it was 39.8 µM [falling, single point].
Still for that read-out and setting: in the case of `O=C(CSc1nnnn1-c1ccc2c(c1)OCCO2)c1cccc2c1OCCO2` it was 39.8 µM [falling, single point]; in that of `COc1ccc(Cl)cc1NC(=O)c1noc2c1CCc1ccccc1-2`, 20 µM [falling, partial curve, poor fit].
Still for that read-out and setting: in the case of `O=C(NC1CCCCC1)C(c1ccncc1)N(C(=O)Cn1nnc(-c2cccs2)n1)C1CCCC1` (stereo not drawn) it was 20 µM [falling, partial curve].
